Measured data: PubChem BioAssay AID1224826 (NIAID, 2016)
Shown is one part, drawn at random, of about 17,000 deposited reagents. About 1,110 of all reagents (6.6%) were called active. 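Active means lowered or raised reporter signal; replicate intensities are raw and not normalised per plate.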 Reagents against one gene are numbered here. Not all columns of the deposit are shown. No sequences are given here.

- Screen: 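Genes that change LPS-induced Tnf promoter activity in mouse macrophages when knocked down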 (primary screen)
- System: RAW264.7 G9 macrophages from mouse bearing reporters for p65 (GFP) and the Tnf promoter (mCherry)
- Reagents: siRNA pool against mouse genes, 100 nM
- Time to read-out: 16 h of LPS stimulation, after 2 days of siRNA transfection
- Conditions: bacterial lipopolysaccharide (Salmonella minnesota R595), 10 ng/ml
- Measurement: 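Imaged Tnf reporter mCherry in nuclei, minus background, normalised per plate to the median and expressed as robust z-scores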
- Direction: Tnf reporter robust z-score: higher = stronger Tnf promoter reporter signal after LPS
- Call rule: 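Called active when robust z-score is at most -1.3, matching the median of the Tlr4 knock-down control, or over 3; control wells and wells with under 50 cells never active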
- Calls: active = Tnf reporter clearly lowered or raised; inactive = no clear change in Tnf reporter

Btbd7 (BTB domain containing 7) → Tnf reporter robust z-score = -0.56; fewer than 50 cells in well = enough cells in well; Call = inactive
Sall3 (spalt like transcription factor 3) → Tnf reporter robust z-score = -0.12; fewer than 50 cells in well = enough cells in well; Call = inactive
Irgm1 (immunity-related GTPase family M member 1) → Tnf reporter robust z-score = 0.64; fewer than 50 cells in well = enough cells in well; Call = inactive
Strip1 (striatin interacting protein 1) → Tnf reporter robust z-score = -0.19; fewer than 50 cells in well = enough cells in well; Call = inactive
Lrrn4 (leucine rich repeat neuronal 4) → Tnf reporter robust z-score = -1.74; fewer than 50 cells in well = enough cells in well; Call = active
Arl4d (ADP-ribosylation factor-like 4D) #1 → Tnf reporter robust z-score = -0.32; fewer than 50 cells in well = enough cells in well; Call = inactive
Arl4d (ADP-ribosylation factor-like 4D) #2 → Tnf reporter robust z-score = -0.35; fewer than 50 cells in well = enough cells in well; Call = inactive

3 of these entries, set out differently:
{"gene symbol": "Lrrn4 (leucine rich repeat neuronal 4)", "pool no.": 1, "Tnf reporter robust z-score": -1.74, "fewer than 50 cells in well": "enough cells in well", "Call": "active"}
{"gene symbol": "Arl4d (ADP-ribosylation factor-like 4D)", "pool no.": 1, "Tnf reporter robust z-score": -0.32, "fewer than 50 cells in well": "enough cells in well", "Call": "inactive"}
{"gene symbol": "Arl4d (ADP-ribosylation factor-like 4D)", "pool no.": 2, "Tnf reporter robust z-score": -0.35, "fewer than 50 cells in well": "enough cells in well", "Call": "inactive"}

The list goes on.
Tmem45b (transmembrane protein 45b) → Tnf reporter robust z-score = -0.24; fewer than 50 cells in well = enough cells in well; Call = inactive
Tubgcp3 (tubulin, gamma complex component 3) → Tnf reporter robust z-score = 0.4; fewer than 50 cells in well = enough cells in well; Call = inactive
Apod (apolipoprotein D) → Tnf reporter robust z-score = 0.23; fewer than 50 cells in well = enough cells in well; Call = inactive
Ncr1 (natural cytotoxicity triggering receptor 1) → Tnf reporter robust z-score = 0.08; fewer than 50 cells in well = enough cells in well; Call = inactive
Slfn10 (schlafen 10) → fewer than 50 cells in well = fewer than 50 cells per well; well left out of calls; Call = inactive
Anapc1 (anaphase promoting complex subunit 1) → Tnf reporter robust z-score = -0.15; fewer than 50 cells in well = enough cells in well; Call = inactive
Serpinb9 (serine (or cysteine) peptidase inhibitor, clade B, member 9) → Tnf reporter robust z-score = -0.51; fewer than 50 cells in well = enough cells in well; Call = inactive
H3c1 (H3 clustered histone 1) → Tnf reporter robust z-score = 0.37; fewer than 50 cells in well = enough cells in well; Call = inactive
Hrc (histidine rich calcium binding protein) → Tnf reporter robust z-score = -0.93; fewer than 50 cells in well = enough cells in well; Call = inactive
Phf8 (PHD finger protein 8) → Tnf reporter robust z-score = 0.45; fewer than 50 cells in well = enough cells in well; Call = inactive
Pikfyve (phosphoinositide kinase, FYVE type zinc finger containing) → Tnf reporter robust z-score = -0.08; fewer than 50 cells in well = enough cells in well; Call = inactive
Hgs (HGF-regulated tyrosine kinase substrate) → Tnf reporter robust z-score = -0.92; fewer than 50 cells in well = enough cells in well; Call = inactive
Krabd3 (KRAB domain containing 3) → Tnf reporter robust z-score = 2; fewer than 50 cells in well = enough cells in well; Call = inactive
Ring1 (ring finger protein 1) → Tnf reporter robust z-score = 0.78; fewer than 50 cells in well = enough cells in well; Call = inactive
